Results taken from the supplement of paper PMC7646827.
Many values rest on one well or one pass, so single values are uncertain.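 All cells are established human bladder cancer lines, one of them grown from a patient-derived xenograft. Viability was read by a luminescent ATP assay as percent inhibition versus vehicle over a seven-point dilution series; the paper calls scores above 59 very active, 30–59 active, 21–29 semi-active, 9–20 low active and below 9 inactive.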

What was measured:
Assay in all cases: drug sensitivity score DSS3 (score 0-100); higher = more sensitive; extreme values may be limits of the assay
Conditions in all cases: culture: 3D, ultra-low attachment; treatment time: 5 days
TCCSUP = system: TCCSUP
T-24 = system: T-24
BC8149 = system: BC8149
UM-UC-6 = system: UM-UC-6
SCaBER = system: SCaBER
UM-UC-12 = system: UM-UC-12
J82 = system: J82
UM-UC-17 = system: UM-UC-17
UM-UC-9 = system: UM-UC-9
UM-UC-1 = system: UM-UC-1
UM-UC-18 = system: UM-UC-18
UM-UC-14 = system: UM-UC-14
UM-UC-3 = system: UM-UC-3
UM-UC-15 = system: UM-UC-15
SW780 = system: SW780
5637 = system: 5637
UM-UC-5 = system: UM-UC-5

| Compound | drug sensitivity score DSS3 (TCCSUP) | drug sensitivity score DSS3 (T-24) | drug sensitivity score DSS3 (BC8149) | drug sensitivity score DSS3 (UM-UC-6) | drug sensitivity score DSS3 (SCaBER) | drug sensitivity score DSS3 (UM-UC-12) | drug sensitivity score DSS3 (J82) | drug sensitivity score DSS3 (UM-UC-17) | drug sensitivity score DSS3 (UM-UC-9) | drug sensitivity score DSS3 (UM-UC-1) | drug sensitivity score DSS3 (UM-UC-18) | drug sensitivity score DSS3 (UM-UC-14) | drug sensitivity score DSS3 (UM-UC-3) | drug sensitivity score DSS3 (UM-UC-15) | drug sensitivity score DSS3 (SW780) | drug sensitivity score DSS3 5637 | drug sensitivity score DSS3 (UM-UC-5) |
| --- | --- | --- | --- | --- | --- | --- | --- | --- | --- | --- | --- | --- | --- | --- | --- | --- | --- |
| C=CC(=O)N1CCC[C@@H](n2nc(-c3ccc(Oc4ccccc4)cc3)c3c(N)ncnc32)C1 (max dose 10000 nM) | 1.27 | 0 | 0 | 0 | 5.47 | 5.24 | 0 | 0 | 0.463 | 0.158 | 10.3 | 1.34 | 6.74 | 0 | 0 | 2.5 | 0 |
| C=CC(=O)Nc1cc(Nc2nccc(-n3cc(CN(C)C)c(-c4ccccc4)n3)n2)c(OC)cc1N1CCOCC1 (max dose 10000 nM) | 0.217 | 0 | 0 | 0 | 1.02 | 0.968 | 0 | 0 | 0 | 0 | 0.224 | 0.0926 | 3.41 | 0 | 0 | 0.0219 | 0 |
| CC(=O)N1c2ccc(-c3ccc(C(=O)O)cc3)cc2[C@H](Nc2ccc(Cl)cc2)C[C@@H]1C (max dose 10000 nM) | 0.219 | 0 | 0.148 | 0 | 0 | 10.5 | 0 | 2.95 | 13.8 | 0 | 0 | 0 | 0 | 0 | 0 | 1.37 | 0 |
| CC(C)S(=O)(=O)c1ccc2nccc(Nc3ccc4scnc4c3)c2c1 (max dose 10000 nM) | 0 | 0 | 0 | 0 | 0 | 0 | 0 | 0 | 0 | 0 | 1.12 | 0 | 0.249 | 1.69 | 0 | 0.0359 | 0 |
| CCc1cc(Nc2nccc(-c3c(-c4ccc(OC)c(C(=O)Nc5c(F)cccc5F)c4)nc4ccccn34)n2)c(OC)cc1N1CCC(N2CCN(S(C)(=O)=O)CC2)CC1 (max dose 10000 nM) | 0 | 0 | 0 | 0 | 0 | 0 | 0 | 0 | 0 | 0 | 0 | 0 | 0 | 0 | 0 | 0 | 0 |
| CN(C)Cc1ccc(-c2nc3cccc4c3n2CCNC4=O)cc1 (max dose 10000 nM) | 0.95 | 0.698 | 0 | 0.203 | 0 | 1.76 | 0 | 0 | 0.138 | 0.555 | 0.214 | 2.59 | 0.841 | 0 | 1.71 | 7.04 | 0 |
| CN1CCN(C(=O)c2cc3cc(Cl)ccc3[nH]2)CC1 (max dose 10000 nM) | 0 | 0 | 0 | 0 | 0 | 0 | 0 | 0 | 0 | 0 | 0 | 0 | 0 | 0 | 0 | 0 | 0 |
| CNCCN(C)Cc1c[nH]nc1-c1ccc(O[C@H]2C[C@H](OCCC3CCOCC3)C2)cc1 (max dose 10000 nM) | 0 | 0 | 0 | 0 | 0 | 0 | 0 | 0 | 0 | 0 | 0 | 0 | 0 | 0 | 0 | 0 | 0 |
| CNc1nc(-c2ccc3c(N)n[nH]c3c2)cc(N2C[C@@H](C(=O)NC3CCCCC3)CC[C@H]2C)n1 (max dose 10000 nM) | 1.33 | 0 | 10.2 | 0.98 | 0 | 0.000153 | 0.00925 | 0 | 0 | 2.02 | 0.0205 | 1.82 | 0 | 0 | 0 | 1.67 | 0.0461 |
| COc1cc(NC(=O)c2ccc(-c3ccc(Cl)cc3)o2)cc(OC)c1 (max dose 10000 nM) | 1.59 | 0 | 0 | 0.923 | 0 | 0 | 0 | 0 | 0.00408 | 0 | 0.407 | 0 | 0 | 2.67 | 0 | 0 | 0 |
| COc1ccc(-c2ccc3c(N4CCOCC4)nc(N4C[C@@H](C)O[C@@H](C)C4)nc3n2)cc1CO (max dose 10000 nM) | 15.3 | 0 | 14 | 6.88 | 6.78 | 1.58 | 1.74 | 1.57 | 1.2 | 14.9 | 1.66 | 5.53 | 3.3 | 0 | 1.32 | 11 | 5.79 |
| COc1cccc(Nc2c(C(N)=O)cnc3c(C)cc(S(=O)(=O)c4cccc(C(=O)N(C)C)c4)cc23)c1 (max dose 10000 nM) | 1.31 | 0 | 0 | 0.77 | 0 | 0 | 0 | 0 | 0 | 0 | 0.46 | 0 | 0 | 0 | 0 | 0 | 0 |
| COc1ncc(-c2cc(-c3ncc(CN4C[C@@H](C)O[C@@H](C)C4)o3)c3cn[nH]c3c2)cc1NS(C)(=O)=O (max dose 10000 nM) | 13.6 | 0 | 5.2 | 0.159 | 2 | 0 | 0 | 0.506 | 0 | 12.8 | 5.02 | 8.5 | 10.2 | 0 | 0 | 3.67 | 0.111 |
| C[C@@H]1CN(CC(=O)Nc2ccc3c(c2)Cc2cccc(-c4cc(=O)cc(N5CCOCC5)o4)c2S3)C[C@H](C)O1 (max dose 10000 nM) | 1.21 | 0 | 4.89 | 0.177 | 0.0136 | 0 | 0 | 0.253 | 0 | 0 | 0 | 0.0658 | 2.74 | 0 | 0 | 0.73 | 0 |
| Cc1ccc(OCC(O)C(C)NC(C)C)c2c1CCC2 (stereo not given) (max dose 10000 nM) | 17.3 | 0.599 | 4.86 | 3.47 | 8.47 | 0 | 0 | 2.1 | 0 | 7.15 | 7.31 | 1.88 | 2.9 | 0 | 0 | 8.86 | 0.646 |
| Cc1cccc(CC(=O)N2CCc3c2ccc(-c2cn(C)c4ncnc(N)c24)c3F)n1 (max dose 10000 nM) | 0 | 0 | 0 | 0 | 0 | 0 | 0 | 0 | 0.268 | 0.4 | 0 | 0 | 0 | 0 | 0 | 0 | 0 |
| Cn1cc(-c2ccc3c(c2)CCN3C(=O)Cc2cccc(C(F)(F)F)c2)c2c(N)ncnc21 (max dose 10000 nM) | 0.503 | 0 | 0 | 0 | 0 | 0.296 | 0 | 0 | 0 | 0 | 0 | 0.569 | 0 | 7.55 | 0 | 0 | 0 |
| Cn1cc(C2=C(c3cn(C4CCN(Cc5ccccn5)CC4)c4ccccc34)C(=O)NC2=O)c2ccccc21 (max dose 10000 nM) | 2.45 | 0 | 3.33 | 0 | 1.07 | 0.228 | 3.79 | 1.32 | 0.152 | 0 | 0.454 | 0.871 | 0 | 0 | 1.86 | 2.88 | 0 |
| N#Cc1c(O)c2c(-c3ccc(-c4ccccc4O)cc3)csc2[nH]c1=O (max dose 10000 nM) | 4.51 | 0.353 | 5.44 | 0 | 0.647 | 1.48 | 0 | 2.38 | 0 | 0 | 12.3 | 3.23 | 1.86 | 0 | 0.108 | 10.8 | 0.136 |
| NS(=O)(=O)NCCNc1nonc1/C(=N/O)Nc1ccc(F)c(Br)c1 (max dose 10000 nM) | 1.34 | 0 | 5.43 | 0.113 | 3.53 | 6.8 | 0 | 0 | 5.22 | 1.36 | 16.4 | 0.533 | 8.77 | 7.41 | 1.22 | 10.4 | 0.85 |
| Nc1[nH]nc2nnc(-c3c(-c4ccccc4)nn4ccccc34)cc12 (max dose 10000 nM) | 37.5 | 0 | 4.45 | 11.1 | 0 | 0.306 | 0 | 15.6 | 0.551 | 23.5 | 0 | 25.3 | 4.35 | 0 | 0 | 1.83 | 0 |
| O=C(NC[C@H](O)CN1CCc2ccccc2C1)c1cc(NC2COC2)ncn1 (max dose 10000 nM) | 2.03 | 0 | 0 | 0 | 0 | 0 | 0 | 0.0841 | 0 | 0 | 3.56 | 0.273 | 0.104 | 0 | 0 | 1.04 | 0 |
| O=C(Nc1ccccc1)N1CCN(c2nc(-c3ccccc3)ns2)CC1 (max dose 10000 nM) | 0 | 0 | 0 | 0 | 0 | 0.0171 | 0 | 0 | 0 | 0 | 0 | 0 | 0 | 0 | 0 | 0 | 0 |
| OC[C@H]1O[C@@H](c2ccc(Cl)c(Cc3ccc(O[C@H]4CCOC4)cc3)c2)[C@H](O)[C@@H](O)[C@@H]1O (max dose 10000 nM) | 0 | 0 | 0 | 0 | 0 | 0 | 0 | 0 | 0 | 18.1 | 0 | 0 | 0 | 0.904 | 0 | 0 | 0 |
| c1ccc2c(CCNc3ccc(Nc4ccncc4)cc3)c[nH]c2c1 (max dose 10000 nM) | 3.76 | 0.161 | 7.69 | 0 | 0 | 0 | 0 | 0 | 0 | 0.434 | 0 | 0 | 0 | 1.41 | 0 | 0 | 0 |

Shown with bars between the fields: entries from further up
Compound | drug sensitivity score DSS3 (TCCSUP) | drug sensitivity score DSS3 (T-24) | drug sensitivity score DSS3 (BC8149) | drug sensitivity score DSS3 (UM-UC-6) | drug sensitivity score DSS3 (SCaBER) | drug sensitivity score DSS3 (UM-UC-12) | drug sensitivity score DSS3 (J82) | drug sensitivity score DSS3 (UM-UC-17) | drug sensitivity score DSS3 (UM-UC-9) | drug sensitivity score DSS3 (UM-UC-1) | drug sensitivity score DSS3 (UM-UC-18) | drug sensitivity score DSS3 (UM-UC-14) | drug sensitivity score DSS3 (UM-UC-3) | drug sensitivity score DSS3 (UM-UC-15) | drug sensitivity score DSS3 (SW780) | drug sensitivity score DSS3 5637 | drug sensitivity score DSS3 (UM-UC-5)
C=CC(=O)N1CCC[C@@H](n2nc(-c3ccc(Oc4ccccc4)cc3)c3c(N)ncnc32)C1 (max dose 10000 nM) | 1.27 | 0 | 0 | 0 | 5.47 | 5.24 | 0 | 0 | 0.463 | 0.158 | 10.3 | 1.34 | 6.74 | 0 | 0 | 2.5 | 0
C=CC(=O)Nc1cc(Nc2nccc(-n3cc(CN(C)C)c(-c4ccccc4)n3)n2)c(OC)cc1N1CCOCC1 (max dose 10000 nM) | 0.217 | 0 | 0 | 0 | 1.02 | 0.968 | 0 | 0 | 0 | 0 | 0.224 | 0.0926 | 3.41 | 0 | 0 | 0.0219 | 0
